This assay has as its target Glucocorticoid receptor (Homo sapiens) (UniProt P04150). The experiment in a line: ATG_hGR_EcoTox2: Attagene TRANS-FACTORIAL EcoTox-2 HepG2 Assay for human Glucocorticoid Receptor (GR). The method, then:
ATG_EcoTox2 is a cell-based, multiplexed assay created by modifying the existing Attagene TRANS-FACTORIAL system to include a panel of nuclear receptors from some or all the following species: human (Homo sapiens), african clawed frog (Xenopus laevis), rainbow trout (Oncorhynchus mykiss), japanese medaka (Oryzias latipes), and zebrafish (Danio rerio). The ECOTOX2-FACTORIAL format uses HepG2, a human liver cell line, with measurements taken at 24 hours after chemical dosing in a 24-well plate. ATG_hGR_EcoTox2 is one of 29 assay components calculated in the ATG_EcoTox2 assay. It is designed to make measurements of mRNA induction, a form of inducible reporter, as detected with fluorescence intensity signals by Reverse transcription polymerase chain reaction (RT-PCR) and Capillary electrophoresis technology.The assay endpoint ATG_hGR_EcoTox2 was analyzed in the positive analysis fitting direction relative to DMSO as the negative control and baseline of activity. Using a type of inducible reporter, measures of mRNA for gain-of-signal activity can be used to understand the reporter gene at the transcription factor-level as they relate to the gene for glucocorticoid receptor. Furthermore, this assay endpoint can be referred to as a primary readout, because this assay has produced multiple assay endpoints where this one serves a reporter gene function. […]

Chains of the proteins cited; added tags and fusions are not shown. Lines headed by an entry give the natural chain unless they say otherwise; changes in a name come on top.
UniProt P04150: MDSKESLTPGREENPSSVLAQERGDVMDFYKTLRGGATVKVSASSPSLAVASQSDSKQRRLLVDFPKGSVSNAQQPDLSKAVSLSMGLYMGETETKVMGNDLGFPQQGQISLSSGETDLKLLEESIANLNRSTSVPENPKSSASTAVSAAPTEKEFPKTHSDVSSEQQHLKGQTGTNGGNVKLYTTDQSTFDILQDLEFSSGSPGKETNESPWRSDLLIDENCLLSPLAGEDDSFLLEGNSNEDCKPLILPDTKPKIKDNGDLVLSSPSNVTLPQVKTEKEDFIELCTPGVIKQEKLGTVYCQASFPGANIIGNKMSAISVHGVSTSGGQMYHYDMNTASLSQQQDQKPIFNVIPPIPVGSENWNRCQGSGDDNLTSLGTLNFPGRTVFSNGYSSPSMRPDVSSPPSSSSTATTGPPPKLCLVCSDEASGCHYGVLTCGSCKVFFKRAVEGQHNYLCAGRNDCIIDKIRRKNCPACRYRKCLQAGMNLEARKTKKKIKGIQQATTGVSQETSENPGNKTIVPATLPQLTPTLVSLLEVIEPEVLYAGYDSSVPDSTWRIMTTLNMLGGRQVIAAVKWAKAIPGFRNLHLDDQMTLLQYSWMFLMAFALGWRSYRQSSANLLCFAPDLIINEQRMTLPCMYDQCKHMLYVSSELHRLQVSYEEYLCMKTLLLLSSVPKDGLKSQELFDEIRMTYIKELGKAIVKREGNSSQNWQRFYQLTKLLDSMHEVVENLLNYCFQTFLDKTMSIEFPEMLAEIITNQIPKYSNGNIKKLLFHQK

The list shows a part of the results, in another mix than the full data. Records with an inconclusive call do not appear. The source made the active and inactive calls. How the source made its calls: active means hit-call score of the fitted dose curve at least 0.9, where 1 is the maximum; inconclusive means response in the unintended direction; inactive means score below 0.9.

Consider `C[C@@H]1C[C@H]2[C@@H]3CCC4=CC(=O)C=C[C@]4(C)[C@@]3(F)[C@@H](O)C[C@]2(C)[C@@]1(O)C(=O)COP(=O)(O)O`, for which the half-maximal activity concentration (AC50) – broadly, the midpoint of the concentration-response curve, whichever way the signal moves – is active: 4.57 nM.

Source of the values: PubChem BioAssay AID2284372 (EPA ToxCast).
